According to PubChem BioAssay AID2685 (National Center for Advancing Translational Sciences (NCATS), 2010):
Among all 320,000 compounds or so, about 2,100 (0.66%) were called active. The inconclusive results got no clear call from the source; some entries with a clear call stand among them for comparison. Calls follow the shape of the dose curve; as a rule, active = well fitted inhibition curve with a large enough effect in the signal ratio, with a control signal flat (not every such curve was filed as active); inconclusive = small, poorly fitted or top-dose-only effect, or effect the other way, or a change in a side signal; inactive = flat fitted curve, though single readings scatter; the % refers to the signal ratio. Potencies beside an inconclusive call are fits to weak or partial responses and may not hold up.

Test: qHTS Assay for Lipid Storage Modulators in Drosophila S3 Cells
Settings: BODIPY lipid droplet fluorescence, 18-24 h, cells fed with added oleic acid; lipid storage change, negative = inhibition: at 46.1 µM (top of the series) unless noted
How it was run: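 Drosophila S3 cells loaded with oleic acid (400 uM, as added) and compounds at several concentrations; lipid droplets imaged by 488-nm laser-scanning cytometry, 500–530 nm intensity and object ratio to cell channel. Percent activity normalized to 20 uM Triacsin C.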
% is scaled to controls: 0 for no effect and ±100 for the full control effect; potency is read from the fitted curve at half-maximal effect.

Row | Compound | Potency | lipid storage change, negative = inhibition
1 | COc1ccc(-c2nn(-c3ccccc3)cc2/C=N/NC(=O)c2cccc(S(=O)(=O)Nc3ccccc3OC)c2)cc1 | inconclusive: 0.0461 µM [activator, full curve, poor fit] | –
2 | CC1CCN(C(=O)COC(=O)/C=C/c2ccc(Br)o2)CC1 | – | inconclusive: -0.416%
3 | CC(NC(=O)Cn1cccc1)c1ccccc1 (configuration not stated) | – | inconclusive: 10.5%
4 | CCN1CCCC1CN(Cc1cc2ccc(C)cc2[nH]c1=O)C(=S)Nc1ccc(OC)cc1OC (configuration not stated) | – | inconclusive: 19.7%
5 | N#Cc1ccc(Cl)cc1NC(=O)CSc1nc2nc(-c3cccs3)cc(C(F)(F)F)c2c(=O)[nH]1 | – | inconclusive: 12.2%
6 | CCNC(=S)NNC(=O)CCc1nc2cc(Cl)ccc2n(Cc2ccccc2)c1=O | inconclusive: 5.17 µM [activator, single point] | –
7 | CN1CCN(CCOC2Cc3ccccc3Sc3ccc(Cl)cc32)CC1 (configuration not stated) | – | inconclusive: -1.75%
8 | CCN(CC)S(=O)(=O)c1cc(NC(=O)C2CC(=O)N(Cc3ccccc3)C2)ccc1Cl (configuration not stated) | – | inconclusive: 6.66%
9 | COc1cccc2sc(N)nc12 | inconclusive: 25.9 µM [falling, single point] | –
10 | CCCCOc1ccc(Cc2cnc(N)nc2N)cc1 | – | inconclusive: -8.7%
11 | CN(C)CCCN1c2ccccc2Sc2ccc(C(F)(F)F)cc21 | – | inconclusive: 0.733%
12 | OC1CCC(Nc2ncnc3sccc23)CC1 (configuration not stated) | – | inconclusive: 23.9%
13 | O=[N+]([O-])c1cc([N+](=O)[O-])c(Oc2c(F)cccc2F)cc1NN1CCCCC1 | inconclusive: 29.1 µM [activator, single point] | –
14 | CCN(C(=O)C1CCCN1S(=O)(=O)c1cccc2nsnc12)c1ccccc1 (configuration not stated) | – | inconclusive: 19%
15 | CNCCCNCc1ccc(SC)cc1 | inconclusive: 0.164 µM [falling, full curve, poor fit] | –
16 | Cc1c(NC(=O)c2ccc(Br)s2)c(=O)n(-c2ccccc2)n1C | – | inconclusive: 24.5%
17 | Cc1ccc(OCC(=O)NNC(=O)Cn2c(=O)cnc3ccccc32)cc1 | – | inconclusive: 28.8%
18 | Cc1nc(-c2cccc(NC(=O)c3ccco3)c2)cs1 | inconclusive: 32.6 µM [falling, partial curve, poor fit] | –
19 | O=C(Nc1cnn(Cc2c(Cl)cccc2Cl)c1)c1ccc([N+](=O)[O-])cc1 | – | inconclusive: -29.8%
20 | Clc1ncccc1-c1nnn(-c2ccccc2Br)n1 | – | inconclusive: -0.225%
21 | COc1ccc(N2CCN(Cc3oc(CO)cc(=O)c3O)CC2)cc1 | – | inconclusive: -3.95%
22 | CC1Cn2c(nc3c2c(=O)[nH]c(=O)n3C)O1 (configuration not stated) | – | inconclusive: -2.91%
23 | CCC(C)c1ccc(NC(=O)C/C(C)=N/NC(=O)c2cnccn2)cc1 (configuration not stated) | inconclusive: 18.4 µM [activator, single point] | –
24 | O=C(NCc1ccc(Cl)cc1)c1ccc2ccccc2n1 | inconclusive: 2.91 µM [activator, partial curve] | –
25 | COc1cc(O)c(C(CCN2CCCC2)c2ccc3c(c2)OCO3)c(OC)c1 (configuration not stated) | – | inconclusive: 21.3%
26 | Cc1ccc(-n2cc(-c3ccccc3)c3c(NN4CCOCC4)ncnc32)cc1 | – | inconclusive: 27.3%

Complete entries as entered above. Order of values: Potency | lipid storage change, negative = inhibition
CCN(CC)S(=O)(=O)c1cc(NC(=O)C2CC(=O)N(Cc3ccccc3)C2)ccc1Cl (configuration not stated) in the list: – | inconclusive: 6.66%
Cc1ccc(-n2cc(-c3ccccc3)c3c(NN4CCOCC4)ncnc32)cc1 in the list: – | inconclusive: 27.3%

The list continues.

Row | Compound | Potency | lipid storage change, negative = inhibition
27 | CC1=C(C)C(=O)C(N2CCOCC2)=CC1=O | inconclusive: 18.4 µM [falling, single point] | –
28 | Cc1ccc(-c2csc3ncnc(NCCN4CCOCC4)c23)cc1 | inconclusive: 0.731 µM [activator, single point] | –
29 | CCOC(=O)C1C(c2ccc(OC)cc2)N(C)OC1(O)C(F)(F)F (configuration not stated) | – | inconclusive: -46.5%
30 | CCOc1ccc(S(=O)(=O)Nc2ccc(C(=O)NCC3CCCO3)cc2)cc1 (configuration not stated) | inconclusive: 13 µM [activator, partial curve, poor fit] | –
31 | CN(C)c1ccc(C2CC(c3ccccc3)=Nc3nc(-c4ccccc4)cn32)cc1 (configuration not stated) | – | inconclusive: 2.65%
32 | C#CCOCCOCCOCCNc1nc(N2CCN(C(=O)Cn3cc(CCCN=C(N)N)nn3)CC2)nc(N2CCN(C(=O)[C@H]([C@@H](C)O)n3cc(CCCCN)nn3)CC2)n1 | inconclusive: 32.6 µM [activator, partial curve] | –
33 | COc1ccc(NC(=O)/C(=C\c2ccccc2)NC(=O)c2ccco2)cc1 | – | inconclusive: 13%
34 | CCOc1ccc(C(C)=O)cc1COC(=O)c1cccnc1SC | – | inconclusive: -6.05%
35 | Cc1ccc(C)c(NC(=O)C(=O)NCc2ccccn2)c1 | – | inconclusive: 30.3%
36 | CCN(Cc1nc(-c2ccc(OC)cc2)no1)C(=O)c1ccoc1C | – | inconclusive: 64%
37 | COc1ccccc1N1CCN(C(=O)c2ccccc2Oc2ccccc2)CC1 | – | inconclusive: -33.7%
38 | O=C(NC1CCOC1)c1ccc(OC2CCN(CCc3ccccc3)CC2)cc1 (configuration not stated) | – | inactive
39 | CCOc1ccc(N(CC(=O)Nc2cc(C)ccc2C)S(=O)(=O)c2c(C)[nH]c(=O)[nH]c2=O)cc1 | inconclusive: 32.6 µM [falling, single point] | –
40 | O=C(O)CN1C(=O)C2C3CC(C2C1=O)C1C(c2ccc(F)cc2)c2sc(=O)[nH]c2SC31 (configuration not stated) | inconclusive: 16.4 µM [cytotoxic, single point] | –
41 | CCCCC(=O)NN(C)c1nc(-c2ccccc2)nnc1C(F)(F)F | – | inconclusive: 10.4%
42 | OCC1(Cc2ccc(Cl)cc2)CCN(CCCc2ccccc2)CC1 | – | inconclusive: 2.2%
43 | O=C(NCc1ccco1)C1CCCN1C(=O)Nc1ccc(Br)cc1 (configuration not stated) | active: 7.31 µM | –
44 | Nc1ccc(C(=O)N/N=C/c2cn(Cc3ccc(F)cc3)c3ccccc23)cc1 | – | inconclusive: -100%
45 | CCC(=O)Nc1ccc(-c2ccc(N3CCCCC3)nn2)cc1 | inconclusive: 29.1 µM [falling, single point] | –
46 | CC(Sc1nc(-c2ccccc2)cc(C(F)(F)F)n1)C(=O)Nc1sc2c(c1C#N)CCC2 (configuration not stated) | – | inconclusive: -48.3%
47 | O=C(CSc1nnc2scc(-c3ccc(F)cc3)n12)NCc1ccco1 | inconclusive: 1.3 µM [activator, full curve] | –
48 | Cc1ccc(OC(=O)C(C)c2cccc(C(=O)c3ccccc3)c2)cc1 (configuration not stated) | – | inconclusive: 8.56%
49 | CCN(CC(=O)NCc1ccc(Cl)cc1)C(=O)CCc1ccccc1O | – | inconclusive: 16.2%
50 | O=C(NCCCc1ccc(F)cc1)C1CCC(=O)N(CC2CCCCC2)C1 (configuration not stated) | – | inconclusive: 14.5%
51 | Cc1cccc(NC(=O)CSc2ccc(-c3cccnc3)nn2)c1 | inconclusive: 16.4 µM [activator, single point] | –
52 | CC1CCN(CCCNC(=O)C2CCC(CNS(=O)(=O)c3cccc4nsnc34)CC2)CC1 (configuration not stated) | – | inactive

As entered above:
Potency, Cc1nc(-c2cccc(NC(=O)c3ccco3)c2)cs1 is entered as inconclusive: 32.6 µM [falling, partial curve, poor fit]
Potency, O=C(CSc1nnc2scc(-c3ccc(F)cc3)n12)NCc1ccco1 is entered as inconclusive: 1.3 µM [activator, full curve]

The list continues:

Row | Compound | Potency | lipid storage change, negative = inhibition
53 | Cc1ccc(NS(=O)(=O)c2ccc(C(=O)N3CCN(c4ccccn4)CC3)cc2)cc1 | inconclusive: 3.26 µM [activator, partial curve] | –
54 | COCCn1cnc2c1c(=O)n(CC(=O)NN)c(=O)n2Cc1ccccc1 | – | inconclusive: 13%
55 | Cc1noc(C)c1COc1ccc(C(=O)N(C)CCOc2ccccc2)cc1 | active: 8.2 µM | –
56 | COC(=O)c1cc2c(ccn2-c2ccc(F)cc2)n1Cc1ccc(OC(C)=O)cc1 | inconclusive: 29.1 µM [falling, single point] | –
57 | CCOc1ccccc1N(CC(=O)NC1CCCCC1)C(=O)CCCC(=O)Nc1ccccn1 | – | inconclusive: 13.6%
58 | Cc1ccc(C(=O)NCC(=O)OCC(=O)c2ccccc2)s1 | inconclusive: 18.4 µM [falling, single point] | –
59 | C[C@H]1CN=C(N(C)C)N1CCCC1CCCCC1 | – | inconclusive: 9.38%
60 | Cc1cc(C)c2[nH]c(=O)c(C(c3nnnn3CC3CCCO3)N3CCCC(C)C3)cc2c1 (configuration not stated) | inconclusive: 1.46 µM [rising, partial curve] | –
61 | O=C(Nc1ccccc1-c1nc2ccccc2s1)C1=COCCO1 | – | inconclusive: -36.7%
62 | CC(=O)Nc1cc(C(=O)O)ccc1S(=O)(=O)c1ccc(C)cc1 | – | inconclusive: 7.85%
63 | O=C(/C=C/c1ccccc1)NC1CC2CCC1C2 (configuration not stated) | – | inconclusive: 9.87%
64 | COc1ccccc1CNC(=O)C1CCN(S(=O)(=O)c2ccc3c(c2)C(C)(C)C(=O)N3C)CC1 | – | inconclusive: -36%
65 | COc1ccc(C/C(N)=N/n2cnnc2)cc1Cl | – | inactive
66 | O=C(c1cccc(N2CCCC2=O)c1)N1CCOCC1 | – | inconclusive: -5.18%
67 | Cc1[nH]c2ccccc2c1/C=N/Nc1ccc([N+](=O)[O-])cc1 | – | inconclusive: -99.6%
68 | O=C(NC1CCS(=O)(=O)C1)c1cccc(S(=O)(=O)N2CCOCC2)c1 (configuration not stated) | inconclusive: 29.1 µM [falling, single point] | –
69 | CCCC(=O)Nc1ccccc1Sc1ncnc2scc(-c3ccccc3)c12 | – | inconclusive: 28.7%
70 | COCc1nnc(NC(=O)CSc2ccc(C)cc2)s1 | – | inconclusive: 114%
71 | CCc1cc2c(=O)n(-c3ccccc3)cnc2s1 | – | inconclusive: -5.52%
72 | O=C(c1cccc(Cl)c1)N1CCN(c2ncnc3c2cnn3-c2ccccc2)CC1 | inconclusive: 29.1 µM [cytotoxic, single point] | –
73 | COc1cccc(N(CC(=O)Nc2cccc(F)c2)S(C)(=O)=O)c1 | – | inconclusive: 82.2%
74 | COc1cc(/C=N/N(C)C)ccc1OC(=O)c1ccco1 | – | inconclusive: 10.4%
75 | CCOC(=O)c1sc(NC(=O)CSc2nc3ccccc3s2)c(C(=O)OCC)c1C | – | inconclusive: 9.77%
76 | O=C1CC(C(=O)N(c2cccc(F)c2)C(C(=O)NC2CCCC2)c2ccccn2)CS1 (configuration not stated) | – | inconclusive: 11.1%
77 | Cc1ccc(COc2coc(CN3CCN(C(=O)c4ccco4)CC3)cc2=O)cc1 | – | inconclusive: -23.4%
